Laboratory results reported in the supplement of paper PMC4604168 (melanoma cell lines).
Some of the results follow. Single values are uncertain, as repeats are few or missing.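 The apoptosis fraction was the count of cleaved-PARP antibody-stained nuclei relative to all DNA-stained nuclei, imaged in 1,536-well plates. Screening doses were set so most cells survived, and baseline and induced cleaved-PARP levels vary greatly across cell lines.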

Assays:
Assay in all cases: cleaved PARP positive nuclei fraction relative to DMSO control; melanoma cells; higher = more apoptosis
Details in all cases: library dose: low library concentration; 72 h
MeWo = test system: MeWo
RPMI7951 = test system: RPMI7951
RVH-421 = test system: RVH-421
SkMel28 = test system: SkMel28
SkMel2 = test system: SkMel2
SkMel30 = test system: SkMel30
UACC62 = test system: UACC62
WM115 = test system: WM115
WM1716 = test system: WM1716
WM1745 = test system: WM1745
WM3526 = test system: WM3526
WM3619 = test system: WM3619
WM451Lu = test system: WM451Lu
SkMel5 = test system: SkMel5
UACC257 = test system: UACC257

Structure (SMILES)	cleaved PARP positive nuclei fraction (MeWo)	cleaved PARP positive nuclei fraction (RPMI7951)	cleaved PARP positive nuclei fraction (RVH-421)	cleaved PARP positive nuclei fraction (SkMel28)	cleaved PARP positive nuclei fraction (SkMel2)	cleaved PARP positive nuclei fraction (SkMel30)	cleaved PARP positive nuclei fraction (UACC62)	cleaved PARP positive nuclei fraction (WM115)	cleaved PARP positive nuclei fraction (WM1716)	cleaved PARP positive nuclei fraction (WM1745)	cleaved PARP positive nuclei fraction (WM3526)	cleaved PARP positive nuclei fraction (WM3619)	cleaved PARP positive nuclei fraction (WM451Lu)	cleaved PARP positive nuclei fraction (SkMel5)	cleaved PARP positive nuclei fraction (UACC257)
O=C(O)[C@@H]1[O][Sb](=[O])([O][Sb]2(=[O])[O][C@H]([C@H](O)CO)[C@H](O)[C@H](C(=O)O)[O]2)[O][C@H]([C@H](O)CO)[C@@H]1O (some centres not stated) [stibogluconate] + Nc1ncn([C@H]2C[C@H](O)[C@@H](CO)O2)c(=O)n1 [decitabine] (first compound 2 µM, partner dose 0.1 µM)	66.4%	45.4%	81.9%	70.6%	72.7%	58.3%	299%	190%	126%	88.1%	69.8%	92%	81.4%		
CO[C@H]1C[C@@H]2CC[C@@H](C)[C@@](O)(O2)C(=O)C(=O)N2CCCC[C@H]2C(=O)O[C@H]([C@H](C)C[C@@H]2CC[C@@H](OCCO)[C@H](OC)C2)CC(=O)[C@H](C)/C=C(\C)[C@@H](O)[C@@H](OC)C(=O)[C@H](C)C[C@H](C)/C=C/C=C/C=C/1C [everolimus] + OCCn1cc(-c2cnc3nnn(Cc4ccc5ncccc5c4)c3n2)cn1 [PF04217903] (first compound 0.02 µM, partner dose 1 µM)	130%	63.6%	95%	342%		630%	396%	62.3%	134%	286%	58.3%	148%	62.4%	139%	178%
O=C(O)c1ccc2c(c1)nc(Nc1cccc(Cl)c1)c1ccncc12 + C#Cc1cccc(Nc2ncnc3cc(OCCOC)c(OCCOC)cc23)c1 [erlotinib] (first compound 0.4 µM, partner dose 0.8 µM)	64.5%	104%	183%	126%	124%	145%	80%	142%	52.1%	98.1%	105%	101%	110%		
CS(=O)(=O)CCNCc1ccc(-c2ccc3ncnc(Nc4ccc(OCc5cccc(F)c5)c(Cl)c4)c3c2)o1 [lapatinib] + C[C@]1(c2nc3c(C(N)=O)cccc3[nH]2)CCCN1 [Veliparib] (first compound 0.8 µM, partner dose 1.4 µM)	106%	301%	129%	77.4%		37.6%	150%	78.1%	36.7%	122%	82.8%	86.5%	45.4%		
CNC(=O)c1cc(Oc2ccc(NC(=O)Nc3ccc(Cl)c(C(F)(F)F)c3)cc2)ccn1 [sorafenib] + COCC[n+]1c2c(n(Cc3cnccn3)c1C)C(=O)c1ccccc1C2=O [YM155] (first compound 0.4 µM, partner dose 0.0004 µM)	31%	61.8%	223%	39.1%		46.3%	112%	96.4%	72.4%	86.7%	139%	176%	135%		
C[C@@H](Oc1cc(-c2cnn(C3CCNCC3)c2)cnc1N)c1c(Cl)ccc(F)c1Cl [Crizotinib] + Nc1nc(F)nc2c1ncn2[C@@H]1O[C@H](CO)[C@@H](O)[C@@H]1O [fludarabine] (first compound 0.2 µM, partner dose 0.2 µM)	462%	87%	59.4%	47%	335%	2900%	161%	161%	78.2%	80.3%	706%	68.4%	76.4%		
Cn1c(=O)n(-c2ccc(C(C)(C)C#N)cc2)c2c3cc(-c4cnc5ccccc5c4)ccc3ncc21 + CN(NC(=O)CC(=O)NN(C)C(=S)c1ccccc1)C(=S)c1ccccc1 [STA4783] (first compound 0.004 µM, partner dose 0.006 µM)	94.5%	174%	62.8%	117%		89.3%	207%	135%	193%	156%	59.3%	146%	58.1%	175%	113%
CNC(=O)c1cc(Oc2ccc(NC(=O)Nc3ccc(Cl)c(C(F)(F)F)c3)cc2)ccn1 [sorafenib] + CC(C)CCN1c2nc(Nc3cc(F)c(O)c(F)c3)ncc2N(C)C(=O)C1C [BID1870] (first compound 0.4 µM, partner dose 0.2 µM)	94%	473%	132%	151%		145%	134%	105%	191%	186%	148%	89.7%	198%	74.6%	34.6%
CO[C@H]1C[C@@H]2CC[C@@H](C)[C@@](O)(O2)C(=O)C(=O)N2CCCC[C@H]2C(=O)O[C@H]([C@H](C)C[C@@H]2CC[C@@H](OCCO)[C@H](OC)C2)CC(=O)[C@H](C)/C=C(\C)[C@@H](O)[C@@H](OC)C(=O)[C@H](C)C[C@H](C)/C=C/C=C/C=C/1C [everolimus] + COCC[n+]1c2c(n(Cc3cnccn3)c1C)C(=O)c1ccccc1C2=O [YM155] (first compound 0.02 µM, partner dose 0.0004 µM)	89.6%	128%	148%	117%		178%	256%	85.7%	125%	119%	48.4%	111%	123%		
Cn1c(=O)n(-c2ccc(C(C)(C)C#N)cc2)c2c3cc(-c4cnc5ccccc5c4)ccc3ncc21 + CC(C)(C)c1cnc(CSc2cnc(NC(=O)C3CCNCC3)s2)o1 [SNS-032] (first compound 0.004 µM, partner dose 0.01 µM)	79.2%	137%	32.7%	227%		66.6%	114%	293%	59.7%	90.9%	132%	97%	49.9%	63%	81.4%
O=C(O)c1ccc2c(c1)nc(Nc1cccc(Cl)c1)c1ccncc12 + Cn1cc(/C=C2\C(=O)Nc3cccnc32)c2ccccc21 [GW441756] (first compound 0.4 µM, partner dose 0.4 µM)	164%	66.6%	62.5%	69.2%		78.1%	109%	146%	95%	88.3%	42.7%	88.7%	47.1%	90.1%	115%
CC(C)C[C@H](NC(=O)[C@H](Cc1ccccc1)NC(=O)c1cnccn1)B(O)O [Bortezomib] + Cn1cncc1[C@@](N)(c1ccc(Cl)cc1)c1ccc2c(c1)c(-c1cccc(Cl)c1)cc(=O)n2C [tipifarnib] (first compound 0.001 µM, partner dose 0.01 µM)	176%	105%	300%	71.2%		74.2%	298%	77.4%	529%	170%	161%	439%	244%	70.2%	104%
Cc1cc(Nc2cc(N3CCN(C)CC3)nc(/C=C/c3ccccc3)n2)n[nH]1 + Cn1c(Nc2ccc(C(F)(F)F)cc2)nc2cc(Oc3ccnc(-c4ncc(C(F)(F)F)[nH]4)c3)ccc21 [CHIR265] (first compound 0.04 µM, partner dose 0.08 µM)	189%	397%	135%	139%		70.2%	75.1%	827%	269%	118%	281%	123%	365%		
O=C(O)c1ccc2c(c1)nc(Nc1cccc(Cl)c1)c1ccncc12 + c1cc(-c2cnn3cc(-c4ccc(OCCN5CCCCC5)cc4)cnc23)ccn1 [Dorsomorphin] (first compound 0.4 µM, partner dose 0.4 µM)	106%	63.1%	214%	63.3%		92.1%	111%	129%	59.7%	392%	234%	91.8%	77.3%	79.3%	312%
CC(C)C[C@H](NC(=O)[C@H](Cc1ccccc1)NC(=O)c1cnccn1)B(O)O [Bortezomib] + CCN(CC)CCCCNc1ncc2cc(-c3cc(OC)cc(OC)c3)c(NC(=O)NC(C)(C)C)nc2n1 [PD173074] (first compound 0.001 µM, partner dose 0.1 µM)	44.5%	50.5%	186%	59.5%		49.2%	119%	154%	490%	117%	51%	640%	156%	72%	71.4%
CC(C)C[C@H](NC(=O)[C@H](Cc1ccccc1)NC(=O)c1cnccn1)B(O)O [Bortezomib] + Clc1ccc(Nc2nnc(Cc3ccncc3)c3ccccc23)cc1 [vatalanib] (first compound 0.001 µM, partner dose 2 µM)	117%	305%	247%	77.3%	104%	73.7%	57%	73.5%	622%	182%	84.3%	848%	95.4%		
Nc1ccn([C@@H]2O[C@H](CO)[C@@H](O)C2(F)F)c(=O)n1 [gemcitabine] + O=C(CCCCCCC(=O)Nc1ccccc1)NO [vorinostat] (first compound 0.0004 µM, partner dose 0.08 µM)	48.3%	195%	35%	99.1%		54.9%	65.8%	26.2%	167%	147%	54.7%	155%	68.5%	136%	27.3%
Cn1c(=O)n(-c2ccc(C(C)(C)C#N)cc2)c2c3cc(-c4cnc5ccccc5c4)ccc3ncc21 + O=C(O)[C@@H]1[O][Sb](=[O])([O][Sb]2(=[O])[O][C@H]([C@H](O)CO)[C@H](O)[C@H](C(=O)O)[O]2)[O][C@H]([C@H](O)CO)[C@@H]1O [stibogluconate] (first compound 0.004 µM, partner dose 2 µM)	108%	107%	99%	152%	108%	640%	40.1%	90.7%	64.4%	88.5%	80.6%	78.1%	494%		
Nc1ccn([C@@H]2O[C@H](CO)[C@@H](O)C2(F)F)c(=O)n1 [gemcitabine] + C#Cc1cccc(Nc2ncnc3cc(OCCOC)c(OCCOC)cc23)c1 [erlotinib] (first compound 0.0004 µM, partner dose 0.8 µM)	41.6%	121%	72%	154%	86.1%	33.5%	291%	81.3%	94.8%	138%	35.3%	114%	176%		

Some of the entries so far, with bars between the fields.
Structure (SMILES) | cleaved PARP positive nuclei fraction (MeWo) | cleaved PARP positive nuclei fraction (RPMI7951) | cleaved PARP positive nuclei fraction (RVH-421) | cleaved PARP positive nuclei fraction (SkMel28) | cleaved PARP positive nuclei fraction (SkMel2) | cleaved PARP positive nuclei fraction (SkMel30) | cleaved PARP positive nuclei fraction (UACC62) | cleaved PARP positive nuclei fraction (WM115) | cleaved PARP positive nuclei fraction (WM1716) | cleaved PARP positive nuclei fraction (WM1745) | cleaved PARP positive nuclei fraction (WM3526) | cleaved PARP positive nuclei fraction (WM3619) | cleaved PARP positive nuclei fraction (WM451Lu) | cleaved PARP positive nuclei fraction (SkMel5) | cleaved PARP positive nuclei fraction (UACC257)
CO[C@H]1C[C@@H]2CC[C@@H](C)[C@@](O)(O2)C(=O)C(=O)N2CCCC[C@H]2C(=O)O[C@H]([C@H](C)C[C@@H]2CC[C@@H](OCCO)[C@H](OC)C2)CC(=O)[C@H](C)/C=C(\C)[C@@H](O)[C@@H](OC)C(=O)[C@H](C)C[C@H](C)/C=C/C=C/C=C/1C [everolimus] + COCC[n+]1c2c(n(Cc3cnccn3)c1C)C(=O)c1ccccc1C2=O [YM155] (first compound 0.02 µM, partner dose 0.0004 µM) | 89.6% | 128% | 148% | 117% |  | 178% | 256% | 85.7% | 125% | 119% | 48.4% | 111% | 123% |  | 
Nc1ccn([C@@H]2O[C@H](CO)[C@@H](O)C2(F)F)c(=O)n1 [gemcitabine] + C#Cc1cccc(Nc2ncnc3cc(OCCOC)c(OCCOC)cc23)c1 [erlotinib] (first compound 0.0004 µM, partner dose 0.8 µM) | 41.6% | 121% | 72% | 154% | 86.1% | 33.5% | 291% | 81.3% | 94.8% | 138% | 35.3% | 114% | 176% |  | 
